# Measured values published in PubChem BioAssay AID2685 (National Center for Advancing Translational Sciences (NCATS), 2010).
# Some of the results follow. Further columns of the screen follow, without active or inactive calls. Most of these compounds were active or inconclusive in the main read-out, so they are no random draw. Potencies come from curve fits of mixed quality, noted in brackets.
# Assay: qHTS Assay for Lipid Storage Modulators in Drosophila S3 Cells;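 as to cell number change: cells counted by Cell Tracker Red CMTPX staining in the red channel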
# Conditions: BODIPY lipid droplet fluorescence, 18-24 h; for cell number change: measured here: cell count max response, cells fed with added oleic acid
# Outline: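 Drosophila S3 cells loaded with oleic acid (400 uM, as added) and compounds at several concentrations; lipid droplets imaged by 488-nm laser-scanning cytometry, 500–530 nm intensity and object ratio to cell channel. Percent activity normalized to 20 uM Triacsin C.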
# [1] = measured here: lipid fluorescence (Fed channel) AC50, cells fed with added oleic acid
# [2] = measured here: cell number channel AC50, cells fed with added oleic acid
SMILES,cell number change [%],AC50 [1],AC50 [2]
COC(=O)c1ccccc1NCC(=O)c1ccc(OC)cc1,-12.4,"6.51 µM [falling, single point]",
Cc1cc(NC(=O)Nc2cc(F)ccc2F)no1,-10.9,"0.231 µM [rising, full curve, poor fit]",
CCCN(CCC)S(=O)(=O)c1ccc(C(=O)Nc2cc3oc4ccccc4c3cc2OC)cc1,-8.67,"16.4 µM [falling, partial curve]","0.461 µM [rising, partial curve, poor fit]"
Cc1ccc(NC(=O)C2CCCN2c2nn3c(=O)cc(C)nc3s2)cc1 (stereo not given),17.3,,
O=C(Nc1ccccc1-c1nc2ccccc2s1)c1ccc(Br)o1,87.4,"0.651 µM [rising, full curve]","0.164 µM [rising, full curve, poor fit]"
CCOC(=O)c1oc2cc(O)cc(C)c2c(=O)c1-c1cscn1,-15.2,"5.8 µM [rising, single point]",
COC(=O)c1[nH]c2cccc(C)c2c1NC(=O)CN1CCN(C(=O)c2ccco2)CC1,-9.16,"0.116 µM [rising, full curve]",
Cc1ccc(CS(=O)(=O)CCC(=O)NCCC(C)C)cc1,-13.7,,
COc1cc(NC(=O)CCCNC(=O)Cn2cnc3sc4c(c3c2=O)CCCC4)cc(OC)c1OC,-6.41,"6.51 µM [rising, single point]",
C/C=C/c1ccc(OCCOc2ccc(C=O)cc2)c(OC)c1,4.6,"9.2 µM [rising, partial curve, poor fit]",
CC1(C)Oc2ccc(C(=O)NNC(=O)Nc3ccccc3)cc2NC1=O,2.56,,
O=S(=O)(c1ccccc1)c1ccccc1/C=N\O,-33.5,"29.1 µM [falling, single point]","0.184 µM [falling, full curve, poor fit]"
CCc1nn(CC(=O)Nc2cc(C)ccc2C)c(=N)s1,60,"2.59 µM [rising, partial curve]","2.06 µM [rising, full curve]"
CN(C)c1ccc(NC(=O)C2CCCN(S(=O)(=O)c3ccccc3)C2)cc1 (stereo not given),-13.4,,"0.517 µM [falling, single point]"
CCC(=O)Nc1ccc(C(=O)NNC(=O)COc2cc(C)ccc2C)cc1,39.1,"1.84 µM [rising, partial curve]","4.11 µM [rising, full curve]"
Cc1ccc2c(c1)cc(CN(Cc1ccco1)C(=O)N1CCOCC1)c1nnnn12,-28.9,"20.6 µM [falling, single point]",
CCCCn1ccnc1C(=O)c1cc(S(=O)(=O)N2CCOCC2)ccc1C,68,"6.51 µM [rising, single point]","7.31 µM [rising, partial curve]"
CCOc1cc(-c2noc(CCC(=O)NC3CCCCC3)n2)ccc1OC,-24.8,"6.51 µM [falling, single point]",
COc1ccccc1COC(=O)CN1C(=O)NC2(CCCCC2C)C1=O (stereo not given),4.82,,
COc1ccc(-c2nc(CS(=O)(=O)CC(=O)Nc3cccc(C(C)=O)c3)c(C)o2)cc1,-13.3,,"7.31 µM [falling, partial curve]"
N#Cc1c(NC(=S)NC(=O)C2CCCC2)sc2c1CCCCC2,-17.5,"32.6 µM [falling, single point]",

# Arranged by length of the SMILES (smallest number first): 16 of the compounds above
SMILES,cell number change [%],AC50 [1],AC50 [2]
Cc1cc(NC(=O)Nc2cc(F)ccc2F)no1,-10.9,"0.231 µM [rising, full curve, poor fit]",
O=S(=O)(c1ccccc1)c1ccccc1/C=N\O,-33.5,"29.1 µM [falling, single point]","0.184 µM [falling, full curve, poor fit]"
COC(=O)c1ccccc1NCC(=O)c1ccc(OC)cc1,-12.4,"6.51 µM [falling, single point]",
Cc1ccc(CS(=O)(=O)CCC(=O)NCCC(C)C)cc1,-13.7,,
C/C=C/c1ccc(OCCOc2ccc(C=O)cc2)c(OC)c1,4.6,"9.2 µM [rising, partial curve, poor fit]",
N#Cc1c(NC(=S)NC(=O)C2CCCC2)sc2c1CCCCC2,-17.5,"32.6 µM [falling, single point]",
O=C(Nc1ccccc1-c1nc2ccccc2s1)c1ccc(Br)o1,87.4,"0.651 µM [rising, full curve]","0.164 µM [rising, full curve, poor fit]"
CCOC(=O)c1oc2cc(O)cc(C)c2c(=O)c1-c1cscn1,-15.2,"5.8 µM [rising, single point]",
COc1ccccc1COC(=O)CN1C(=O)NC2(CCCCC2C)C1=O (stereo not given),4.82,,
CC1(C)Oc2ccc(C(=O)NNC(=O)Nc3ccccc3)cc2NC1=O,2.56,,
CCC(=O)Nc1ccc(C(=O)NNC(=O)COc2cc(C)ccc2C)cc1,39.1,"1.84 µM [rising, partial curve]","4.11 µM [rising, full curve]"
CN(C)c1ccc(NC(=O)C2CCCN(S(=O)(=O)c3ccccc3)C2)cc1 (stereo not given),-13.4,,"0.517 µM [falling, single point]"
Cc1ccc2c(c1)cc(CN(Cc1ccco1)C(=O)N1CCOCC1)c1nnnn12,-28.9,"20.6 µM [falling, single point]",
CCCN(CCC)S(=O)(=O)c1ccc(C(=O)Nc2cc3oc4ccccc4c3cc2OC)cc1,-8.67,"16.4 µM [falling, partial curve]","0.461 µM [rising, partial curve, poor fit]"
COc1cc(NC(=O)CCCNC(=O)Cn2cnc3sc4c(c3c2=O)CCCC4)cc(OC)c1OC,-6.41,"6.51 µM [rising, single point]",
COc1ccc(-c2nc(CS(=O)(=O)CC(=O)Nc3cccc(C(C)=O)c3)c(C)o2)cc1,-13.3,,"7.31 µM [falling, partial curve]"

# Further structures.

SMILES,cell number change [%],AC50 [1],AC50 [2]
CCCc1cc(=O)[nH]c(SCC(=O)c2ccc3c(c2)OCCO3)n1,19.4,"25.9 µM [rising, partial curve, poor fit]",
Cc1cccc(C)c1NC(=O)COC(=O)c1cc[n+]([O-])cc1,0.549,"29.1 µM [rising, single point]",
CC(O)c1c(OCc2ccccc2)ncnc1OCc1ccccc1 (stereo not given),-40.1,,"16.4 µM [falling, single point]"
Cc1ccc(S(=O)(=O)N2CCN(c3nc(CN4CCCC4)nc4sc(C)c(C)c34)CC2)cc1,-1.66,"1.3 µM [falling, partial curve]","1.16 µM [falling, full curve, poor fit]"
Cc1nc2ccc(S(=O)(=O)NCC(=O)Nc3cccc(F)c3)cc2s1,5.56,"4.11 µM [falling, single point]",
COc1ccccc1NC(=S)N/N=C/c1ccc(O)cc1,8.36,"16.4 µM [rising, partial curve]",
Cc1ccc(C2(c3ccccc3)NC(=O)N(CC(=O)NCc3ccccc3)C2=O)cc1C (stereo not given),-24.3,"0.58 µM [falling, partial curve, poor fit]",
N=c1c(C(=O)NC2CCCCC2)cc2c(=O)n3ccccc3nc2n1CC1CCCO1 (stereo not given),,"5.17 µM [falling, single point]",
COc1cccc(NC(=O)Nc2cc(C(=O)NC(C)C)ccc2N2CC3CC(C2)c2cccc(=O)n2C3)c1 (stereo not given),22.6,,"0.058 µM [rising, full curve, poor fit]"
O=C(Nc1ccc(N2CCOCC2)c(Cl)c1)c1ccc(S(=O)(=O)N2CCOCC2)cc1,-40.5,"29.1 µM [falling, single point]","16.4 µM [falling, single point]"
O=C(O)Cc1cn(Cc2cccc(Cl)c2)c2ccccc12,-6.91,,
O=C(O)c1n[nH]c2c1CC(C1CCCCC1)CC2 (stereo not given),16.4,"0.0651 µM [rising, full curve, poor fit]","0.731 µM [falling, single point]"
Cn1c(N)c(-c2ccccc2)c2ccc([N+](=O)[O-])cc2c1=O,30.6,,"11.6 µM [rising, partial curve]"
COc1ccc(CNC(=O)CN(C(=O)c2csnn2)c2ccccc2F)cc1,10.1,,
Cc1ccc(C(=O)NCc2ccco2)cc1Br,3.73,"6.51 µM [rising, single point]",
COc1ccc(CN2C(=NC(=O)CCc3ccccc3)SC3CS(=O)(=O)CC32)cc1 (stereo not given),82.3,,"20.6 µM [rising, partial curve, poor fit]"
CN(C)S(=O)(=O)N1CCc2ccc(NC(=O)c3ccc(C(F)(F)F)cc3)cc2C1,-12.9,"3.66 µM [rising, single point]",
OCC[C@@H]1C[C@@H](O)[C@H](O)[C@]2(Cc3ccccc3O2)O1,4.19,,
COc1ccccc1N(CC(O)CN1CCCCC1)S(=O)(=O)c1ccc(C)cc1 (stereo not given),1.8,,
C/C(Cl)=C/Cn1c(N2CCCC2)nc2c1c(=O)[nH]c(=O)n2C,6.08,,
CCOC(=O)c1c(NC(=O)COc2ccc3ccc(=O)oc3c2)sc(C(=O)N(C)C)c1C,-0.758,"1.3 µM [rising, partial curve]",

SMILES,cell number change [%],AC50 [1],AC50 [2]
Cc1ccc(C)c(NC(=O)C(=O)NCC2CCCN2S(=O)(=O)c2cccs2)c1 (stereo not given),31.3,,"1.46 µM [rising, partial curve, poor fit]"
O=C(c1ccccc1[N+](=O)[O-])N1CCCC(C(=O)N2CCCCCC2)C1 (stereo not given),3.44,"5.8 µM [rising, single point]",
Cc1ccc2cccc(S(=O)(=O)N3CCCc4ccccc43)c2n1,-4.14,,"3.66 µM [falling, single point]"
Cc1ccc(-c2nnn(CC(=O)N(CC(=O)NCc3ccccc3)c3cccc(C)c3C)n2)o1,59,"11.6 µM [rising, partial curve]","9.2 µM [rising, partial curve, poor fit]"
CCCOCC(O)COc1ccccc1C(=O)N1CCOCC1 (stereo not given),-12.6,"0.731 µM [rising, single point]",
CC(C)OC(=O)CC1C(=O)NCCN1C(=S)NC(=O)CCc1ccccc1 (stereo not given),-21.8,"29.1 µM [falling, partial curve]",
Cc1cc2c(cc1C)/C(=C\C(N)=O)NC(C)(C)C2,-6.69,,
CCn1ccc(C(=O)Nc2sc3c(c2C(=O)OC)CCC3)n1,-31.2,"6.51 µM [falling, single point]","1.03 µM [falling, full curve, poor fit]"
CC(C)=NN/C(N)=N/C(=S)Nc1ccc(C)cc1,18.3,"11.6 µM [rising, partial curve, poor fit]",
COC(=O)c1ccc(Sc2ccc(F)cc2)c(N)c1,1.34,,
O=C(COc1cccc2ccccc12)Nc1cc(Cl)ccc1C(=O)O,16.8,"1.64 µM [falling, partial curve]",
CCCCOc1cccc(C(=O)NC(=S)Nc2ccc(Cl)c(C(=O)O)c2)c1,8.95,,
COC(=O)c1ccccc1NC(=O)Nc1ccc(Cl)cn1,121,,
COc1ccc2c(=O)c(-c3ccccc3C)c(C)oc2c1,-6.51,"32.6 µM [falling, single point]",
COc1cccc(S(=O)(=O)NCc2ccc3c(c2)OCO3)c1,,"29.1 µM [rising, single point]","2.91 µM [rising, single point]"
O=C(O)CSCC(=O)Nc1ccccn1,17.7,,"0.92 µM [falling, full curve]"
N#Cc1c(NC(=O)CSc2nc(-c3ccccc3)cc(C(F)(F)F)n2)sc2c1CCC2,3.87,"1.84 µM [rising, partial curve, poor fit]",
CCCn1c(CN(C)Cc2ccccc2)nc2c1c(=O)n(C)c(=O)n2C,-43.4,"16.4 µM [falling, single point]","20.6 µM [falling, single point]"
NS(=O)(=O)c1ccccc1,-16.3,"0.411 µM [falling, partial curve, poor fit]",
